The text below walks through data of publication PMC9684443.

Protein sequences, listed by entry. Tags and fused reporters are not part of them.
UniProt Q8TAQ2: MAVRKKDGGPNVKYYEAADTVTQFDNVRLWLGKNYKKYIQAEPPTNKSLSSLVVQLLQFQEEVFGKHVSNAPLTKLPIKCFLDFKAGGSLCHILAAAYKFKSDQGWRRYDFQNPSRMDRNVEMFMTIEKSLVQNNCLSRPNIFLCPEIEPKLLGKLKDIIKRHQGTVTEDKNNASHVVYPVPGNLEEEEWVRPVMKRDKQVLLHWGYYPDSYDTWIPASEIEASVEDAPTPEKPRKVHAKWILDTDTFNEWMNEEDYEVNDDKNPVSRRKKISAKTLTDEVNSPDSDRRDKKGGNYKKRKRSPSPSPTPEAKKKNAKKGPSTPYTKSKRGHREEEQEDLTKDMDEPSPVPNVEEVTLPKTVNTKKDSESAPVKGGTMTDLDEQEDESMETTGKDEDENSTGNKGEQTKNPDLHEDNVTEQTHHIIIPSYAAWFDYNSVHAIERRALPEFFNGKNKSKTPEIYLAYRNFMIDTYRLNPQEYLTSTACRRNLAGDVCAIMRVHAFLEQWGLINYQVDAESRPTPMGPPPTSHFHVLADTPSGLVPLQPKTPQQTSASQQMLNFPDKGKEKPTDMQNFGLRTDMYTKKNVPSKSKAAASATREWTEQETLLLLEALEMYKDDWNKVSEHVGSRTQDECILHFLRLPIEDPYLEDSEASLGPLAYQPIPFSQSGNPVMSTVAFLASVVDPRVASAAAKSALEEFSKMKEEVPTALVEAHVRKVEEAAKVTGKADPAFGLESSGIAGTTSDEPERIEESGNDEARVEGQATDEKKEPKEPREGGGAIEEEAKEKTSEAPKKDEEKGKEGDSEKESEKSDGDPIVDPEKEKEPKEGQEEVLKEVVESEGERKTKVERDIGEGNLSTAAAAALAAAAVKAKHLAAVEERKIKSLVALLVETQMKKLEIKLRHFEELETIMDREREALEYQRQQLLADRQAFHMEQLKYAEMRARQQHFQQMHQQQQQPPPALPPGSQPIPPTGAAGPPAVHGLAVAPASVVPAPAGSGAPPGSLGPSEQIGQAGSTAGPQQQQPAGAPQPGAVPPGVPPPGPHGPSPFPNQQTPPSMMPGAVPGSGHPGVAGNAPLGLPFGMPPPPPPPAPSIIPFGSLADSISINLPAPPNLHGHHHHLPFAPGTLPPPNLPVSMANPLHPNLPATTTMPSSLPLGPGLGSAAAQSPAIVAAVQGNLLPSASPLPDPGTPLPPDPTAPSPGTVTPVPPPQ
UniProt P51532: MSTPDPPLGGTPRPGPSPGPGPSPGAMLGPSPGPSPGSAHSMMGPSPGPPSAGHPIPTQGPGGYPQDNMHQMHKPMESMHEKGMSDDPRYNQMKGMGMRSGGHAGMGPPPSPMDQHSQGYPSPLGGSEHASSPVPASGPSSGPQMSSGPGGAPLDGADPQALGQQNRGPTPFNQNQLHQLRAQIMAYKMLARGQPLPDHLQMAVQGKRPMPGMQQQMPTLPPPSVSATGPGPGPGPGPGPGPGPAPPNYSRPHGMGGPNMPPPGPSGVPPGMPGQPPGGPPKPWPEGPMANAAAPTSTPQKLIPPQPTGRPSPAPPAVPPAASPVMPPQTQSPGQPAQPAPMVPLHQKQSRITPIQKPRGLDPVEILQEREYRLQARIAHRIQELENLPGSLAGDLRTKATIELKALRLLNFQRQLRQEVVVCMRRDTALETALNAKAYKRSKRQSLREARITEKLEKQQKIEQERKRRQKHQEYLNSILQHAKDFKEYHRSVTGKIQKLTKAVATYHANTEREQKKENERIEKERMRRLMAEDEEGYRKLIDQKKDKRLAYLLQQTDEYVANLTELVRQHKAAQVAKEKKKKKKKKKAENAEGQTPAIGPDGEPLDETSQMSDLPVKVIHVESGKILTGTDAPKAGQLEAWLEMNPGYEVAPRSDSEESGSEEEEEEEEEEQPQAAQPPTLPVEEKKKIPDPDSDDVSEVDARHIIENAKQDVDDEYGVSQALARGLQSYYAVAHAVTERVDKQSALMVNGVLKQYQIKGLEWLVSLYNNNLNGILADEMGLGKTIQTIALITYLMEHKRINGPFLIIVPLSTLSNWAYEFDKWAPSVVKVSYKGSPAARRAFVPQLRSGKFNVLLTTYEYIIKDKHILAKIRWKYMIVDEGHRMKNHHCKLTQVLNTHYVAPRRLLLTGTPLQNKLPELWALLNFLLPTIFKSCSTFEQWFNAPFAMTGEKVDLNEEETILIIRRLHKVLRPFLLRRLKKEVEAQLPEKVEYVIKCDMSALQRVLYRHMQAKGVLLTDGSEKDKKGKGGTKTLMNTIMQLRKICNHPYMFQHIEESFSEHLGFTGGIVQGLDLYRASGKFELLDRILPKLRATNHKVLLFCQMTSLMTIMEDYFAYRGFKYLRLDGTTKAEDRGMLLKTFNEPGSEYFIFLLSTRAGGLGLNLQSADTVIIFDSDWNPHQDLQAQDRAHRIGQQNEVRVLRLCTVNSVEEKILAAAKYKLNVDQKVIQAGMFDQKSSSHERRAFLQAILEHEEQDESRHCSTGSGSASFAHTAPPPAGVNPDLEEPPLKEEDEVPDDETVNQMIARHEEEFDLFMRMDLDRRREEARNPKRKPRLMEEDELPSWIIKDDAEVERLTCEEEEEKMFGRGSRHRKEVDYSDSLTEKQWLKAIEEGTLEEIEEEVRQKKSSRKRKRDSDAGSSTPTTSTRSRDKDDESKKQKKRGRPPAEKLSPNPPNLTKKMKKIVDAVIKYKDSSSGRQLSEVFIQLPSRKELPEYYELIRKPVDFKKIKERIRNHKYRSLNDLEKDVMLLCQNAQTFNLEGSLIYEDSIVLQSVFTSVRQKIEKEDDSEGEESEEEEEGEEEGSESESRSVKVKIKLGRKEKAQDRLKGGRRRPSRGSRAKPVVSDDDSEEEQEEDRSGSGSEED

These are yes or no findings as the source states them, for the method shown. In cells and extracts the contact can be indirect. Some binding calls cover weakened binding; strength is not graded here.

The target of the test is SMARCC2 (human (endogenous in U118MG)) (UniProt Q8TAQ2). The experiment in a line: co-IP; immunoprecipitation of SMARCC2 from nuclear extracts of U118MG cells (with CRISPR-Cas9 knockout of SMARCC2), immunoblotting for SMARCB1, SMARCC1, SMARCA4.

On to SMARCA4 (from UniProt P51532 1-1647), for which the binding result was “binds”.
